Laboratory results published in PubChem BioAssay AID2453 (Broad Institute, 2010).
The list shows a part of the results. Entries with a potency or affinity are not part of this list. The source made no clear call on entries shown without one.

Assay: PubChem AID 2453
Conditions: H4 neuroglioma, luciferase reporter luminescence; at 19.5 µM (top of the series)

CN(C)c1nc(N)nc(CSc2nnnn2-c2cccc3ccccc23)n1
activation: -17.8%
